Measured values published in patent US20020169296A1, “Linked, sequence-specific DNA-binding molecules” (priority 2000, published 2002).
A unit is not stated for every read-out.

Test system: Drosophila Kc nuclei
Test: Staining of isolated Kc nuclei, epifluorescence microscopy
Details: 256 gray scale levels

Substance | average pixel intensity of the nucleoplasm of the green channel
F*-γ-(Py)5-β-Dp-Glu-(Ao)3-(Py)5-β-Dp [Lex9F] | ~30
(Py)3-β-(Py)3-β-Dp-F* [Compound P9F] | about 130
